From patent publication US10240133B2, “ERK-derived peptides and uses thereof” (Yeda Research and Development Co. Ltd., priority 2013, dated 2019)
At least one compound was matched to its structure with a doubt left.

Test system: PLX-4032 and U0126 resistant A2352 melanoma cells
Test: Proliferation of inhibitor-resistant melanoma cells
Assay type: cell-based

COC[C@H]1OC(=O)c2coc3c2[C@@]1(C)C1=C(C3=O)[C@@H]2CCC(=O)[C@@]2(C)C[C@H]1OC(C)=O [PI3K inhibitor]
effect in resistant compared with non-resistant cells: no significant change
